# Laboratory results published in ChEMBL document CHEMBL1122246, “Analgesic narcotic antagonists. 15. Potent narcotic agonist 7 beta-(arylalkyl)-4,5 alpha-epoxymorphinans” (1983).
# System: Mus musculus
# Test: Narcotic agonist activity using acetic acid induced writhing in the mouse upon subcutaneous administration
# Assay type: functional
# Conditions: sc
# Procedure, shortened: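 Mouse acetic acid writhing test with subcutaneous dosing. Salt forms were given in distilled water; free bases were dissolved by adding 1 N HCl and then diluted.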
structure (smiles),measurement,value
CN1CC[C@]23c4c5ccc(O)c4O[C@H]2[C@@H](O)C=C[C@H]3[C@H]1C5 [MORPHINE],ED50,2.1 µmol/kg
